From PubChem BioAssay AID330 (DTP/NCI, 2004) come the findings set out here.

The list is a part of this screen's results and no random one: it gathers tests that were run many times, whatever their T/C, doses with no T/C, and many T/C values between a quarter and a half above the control. Other doses and runs of a compound stand elsewhere. T/C: endpoint of the treated group in % of that of the vehicle group. Some doses have a count of surviving animals in place of a T/C: the source files T/C as zero there, which appears to mark a toxic dose or a test without result, not a measured value. Some doses without a T/C left all or most animals alive at the check, yet need not have been tolerated: survival well below the control is almost never listed, so the zero probably covers shortened survival too. Survivors were counted at the toxicity check, usually on the fifth day, unless a day is given; later deaths do not show. Schedules are NCI's codes, read here as Q, the interval in days (D) or hours (H), X, the number of doses. Some doses were run more than once; the results are listed from low to high. For survival time, this PubChem deposit counts one and a half times the control or more as active, and values a quarter to a half above the control carry no call in these data; other NCI protocols may use other cut-offs. Some T/C values are followed by the survivors on the day toxicity was checked, most often the fifth; where none is given, no animal had died by that day.

This test relates to P388 leukemia ip, CD2F1 mice, survival T/C. The test can be described thus: NCI In Vivo Anticancer Drug Screen. Data for tumor model P388 Leukemia (intraperitoneal) in CD2F1 (CDF1) mice. The note with it: T/C endpoint: median survival time, higher T/C = longer survival.
The mark [1] stands for this setting: dose: 200.0 mg/kg/injection, schedule: Q01DX009 (ip), vehicle: saline.
Where [2] appears, read: dose: 200.0 mg/kg/injection, schedule: Q01DX005 (ip), vehicle: saline with Tween-80.
Where [3] appears, read: dose: 50.0 mg/kg/injection, schedule: Q01DX009 (ip), vehicle: saline.
Setting [4] is: dose: 100.0 mg/kg/injection, schedule: Q01DX009 (ip), vehicle: saline.
[5] abbreviates: dose: 100.0 mg/kg/injection, schedule: Q01DX005 (ip), vehicle: saline with Tween-80.
Setting [6] is: dose: 200.0 mg/kg/injection, schedule: Q01DX005 (ip), vehicle: Klucel (hydroxypropylcellulose) (HPC).
[7] abbreviates: dose: 100.0 mg/kg/injection, schedule: Q01DX005 (ip), vehicle: saline.
The mark [8] stands for this setting: dose: 200.0 mg/kg/injection, schedule: Q01DX005 (ip), vehicle: saline.
Setting [9] is: dose: 200.0 mg/kg/injection, schedule: Q01DX009 (ip), vehicle: Klucel (hydroxypropylcellulose) (HPC).

`O=C(CCl)SCc1ccccc1`: the survivor count (dose: 400.0 mg/kg/injection, schedule: Q04DX003 (ip), vehicle: saline with Tween-80) is given as 0 of 6.

`N#CC(NCc1ccccc1)c1ccc2c(c1)OCO2` (stereo not given): the survivor count is 6 of 6 (dose: 50.0 mg/kg/injection, schedule: Q01DX009 (ip), vehicle: saline with Tween-80) and 5 of 6 (dose: 100.0 mg/kg/injection, schedule: Q01DX009 (ip), vehicle: saline with Tween-80).

As to `CCN1C(=O)/C(=C/C=C/N(C)c2ccccc2)SC1=S`, the survivor count under setting [1] was 6 of 6.

For the molecule `CC(=O)Oc1cccc2c1CC(C[Se]c1ccccc1)C(=O)O2` (stereo not given), the survivor count under setting [2] is reported as 6 of 6.

Turning to `O=C(O)/C(=C\c1c(Cl)n(-c2ccccc2)c2ccccc12)NC(=O)c1ccccc1`, where the note is “dose: 400.0 mg/kg/injection, schedule: Q01DX001 (ip), vehicle: saline with Tween-80”, the survivor count was 0 of 6.

In the case of `CC(=O)Nc1ccc(S(=O)(=O)CC(N)=O)cc1`, the survivor count reads like this: (dose: 100.0 mg/kg/injection, schedule: Q01DX009 (ip), vehicle: suspension in saline) 6 of 6; (dose: 200.0 mg/kg/injection, schedule: Q01DX009 (ip), vehicle: suspension in saline) 6 of 6.

On to `CC(=O)NC(C)CC1=CC(=O)C(C)=CC1=O` (stereo not given), for which the survivor count by setting is: (dose: 50.0 mg/kg/injection, schedule: Q01DX001 (ip), vehicle: Klucel (hydroxypropylcellulose) (HPC)) 0 of 6; (dose: 100.0 mg/kg/injection, schedule: Q01DX001 (ip), vehicle: Klucel (hydroxypropylcellulose) (HPC)) 0 of 6.

Turning to `COc1ccc(Oc2cc3c[n+](C)ccc3cc2OC)cc1`, the survivor count is, setting by setting: (dose: 50.0 mg/kg/injection, schedule: Q01DX009 (ip), vehicle: alcohol) 5 of 6; under setting [3], 2 of 6; (dose: 100.0 mg/kg/injection, schedule: Q01DX009 (ip), vehicle: alcohol) 0 of 6; (dose: 200.0 mg/kg/injection, schedule: Q01DX009 (ip), vehicle: alcohol) 0 of 6.

For the molecule `O=C1N2CCCC2(S)C(=O)N2CCCC12[S-].[Zn]` (stereo not given), the survivor count under setting [3] is reported as 6 of 6, the survivor count under setting [4] was 3 of 6 and the survivor count under setting [1] was 0 of 6.

In the case of `CCCCCCCCCCCCCC[N+]1([O-])CCOCC1`, the survivor count (dose: 200.0 mg/kg/injection, schedule: Q04DX002 (ip), vehicle: saline) is recorded as 3 of 6 and the survivor count (dose: 400.0 mg/kg/injection, schedule: Q04DX002 (ip), vehicle: saline) is 0 of 6.

Take `S=c1n(-c2ccc(Cl)cc2)c2nc3ccccc3nc(/c2=N\Nc2ccc(Br)cc2)n1-c1ccccn1`: the survivor count by setting is: under setting [5], 5 of 6; under setting [2], 0 of 6.

As for `Cc1ccc(S(=O)(=O)c2c(O)c3ccccc3c3nc4ccccc4nc23)cc1`, the survivor count (dose: 25.0 mg/kg/injection, schedule: Q01DX009 (ip), vehicle: saline) is given as 6 of 6 and the survivor count under setting [4] is on record as 5 of 6.

`OC(c1cc(C(F)(F)F)nc2c(Cl)cc(Cl)cc12)C1CCCCN1` (stereo not given): the survivor count (dose: 200.0 mg/kg/injection, schedule: Q01DX009 (ip), vehicle: saline with Tween-80) is listed as 4 of 6.

Take `O=C(/C=C/c1cccc(Cl)c1)c1ccccc1`: the T/C (dose: 300.0 mg/kg/injection, schedule: Q01DX009 (ip), vehicle: Klucel (hydroxypropylcellulose) (HPC)) was 129 % of control.

In the case of `C=CCN(CC=C)C(=O)CCN1CC1`, the survivor count is, setting by setting: (dose: 10.0 mg/kg/injection, schedule: Q04DX003 (ip), vehicle: saline) 5 of 6; (dose: 20.0 mg/kg/injection, schedule: Q04DX003 (ip), vehicle: saline) 1 of 6; (dose: 40.0 mg/kg/injection, schedule: Q04DX003 (ip), vehicle: saline) 0 of 6.

As for `CC1=CC(Cc2ccccc2)N(C)C(C(N)=O)C1` (stereo not given), the survivor count under setting [6] was 0 of 6.

On to `CS(=O)(=O)N1OC1c1ccccc1` (stereo not given), for which the survivor count (dose: 240.0 mg/kg/injection, schedule: Q01DX005 (ip), vehicle: Klucel (hydroxypropylcellulose) (HPC)) is on record as 4 of 6.

For the molecule `Cc1cc[n+](C2=C(Nc3cccc(C(F)(F)F)c3)C(=O)c3ccccc3C2=O)cc1`, the survivor count is, setting by setting: (dose: 60.0 mg/kg/injection, schedule: Q01DX005 (ip), vehicle: saline with Tween-80) 0 of 6; (dose: 120.0 mg/kg/injection, schedule: Q01DX005 (ip), vehicle: saline with Tween-80) 0 of 6; (dose: 240.0 mg/kg/injection, schedule: Q01DX005 (ip), vehicle: saline with Tween-80) 0 of 6.

As to `Cc1cccc[c]1[Sn]([Cl])([O][Sn]([Cl])([c]1ccccc1C)[c]1ccccc1C)[c]1ccccc1C`, the T/C by setting is: (dose: 0.39 mg/kg/injection, schedule: Q01DX005 (ip), vehicle: saline) 133 % of control; (dose: 0.79 mg/kg/injection, schedule: Q01DX005 (ip), vehicle: saline) 128 and 129 % of control; (dose: 1.56 mg/kg/injection, schedule: Q01DX005 (ip), vehicle: saline) 133 % of control. The survivor count (dose: 3.12 mg/kg/injection, schedule: Q01DX005 (ip), vehicle: saline) is 1 of 6; the survivor count (dose: 6.25 mg/kg/injection, schedule: Q01DX005 (ip), vehicle: saline) is 0 of 6; the survivor count (dose: 12.5 mg/kg/injection, schedule: Q01DX005 (ip), vehicle: saline) was 0 of 6; the survivor count (dose: 50.0 mg/kg/injection, schedule: Q01DX005 (ip), vehicle: saline) is on record as 0 of 6; the survivor count under setting [7] is given as 0 of 6; the survivor count under setting [8] is reported as 0 of 6.

For `COc1cc2c(c(OC)c1OC)C(=O)CCC2`, the survivor count (dose: 200.0 mg/kg/injection, schedule: Q04DX003 (ip), vehicle: Klucel (hydroxypropylcellulose) (HPC)) is recorded as 6 of 6.

In the case of `CCN(CC)CCNc1ccc(COC(=O)NC)c2oc3ccc(OC(=O)NC)cc3c(=O)c12`, the T/C was 133 % of control (dose: 6.25 mg/kg/injection, schedule: Q01DX005 (ip), vehicle: Klucel (hydroxypropylcellulose) (HPC)) and 133 % of control (dose: 12.5 mg/kg/injection, schedule: Q01DX005 (ip), vehicle: Klucel (hydroxypropylcellulose) (HPC)). Also, the survivor count (dose: 25.0 mg/kg/injection, schedule: Q01DX005 (ip), vehicle: Klucel (hydroxypropylcellulose) (HPC)) was 4 of 5 and 5 of 6; the survivor count (dose: 50.0 mg/kg/injection, schedule: Q01DX005 (ip), vehicle: Klucel (hydroxypropylcellulose) (HPC)) is 3 of 6; the survivor count (dose: 100.0 mg/kg/injection, schedule: Q01DX005 (ip), vehicle: Klucel (hydroxypropylcellulose) (HPC)) is reported as 0 of 6; the survivor count under setting [6] is given as 0 of 6.

`O=C(O)CCCCCCCCCCNC(=O)CCl`: the survivor count under setting [9] is 1 of 6.

Consider `CC(=O)OCc1c(COC(C)=O)c(-c2ccccc2)n2c1CCC2`, for which the T/C is 125 % of control [5 of 6 alive] (dose: 6.25 mg/kg/injection, schedule: Q01DX009 (ip), vehicle: Klucel (hydroxypropylcellulose) (HPC)) and 142 % of control (dose: 25.0 mg/kg/injection, schedule: Q01DX009 (ip), vehicle: Klucel (hydroxypropylcellulose) (HPC)). Moreover, the survivor count runs as follows: (dose: 50.0 mg/kg/injection, schedule: Q01DX009 (ip), vehicle: Klucel (hydroxypropylcellulose) (HPC)) 6 of 6; (dose: 100.0 mg/kg/injection, schedule: Q01DX009 (ip), vehicle: Klucel (hydroxypropylcellulose) (HPC)) 3 of 6; under setting [9], 0 of 6.

As for `Cc1cc(N=Nc2ccc(-c3ccc(N=Nc4ccc(O)c(C(=O)O)c4)cc3)cc2)c(N)c(N=Nc2ccc(C(=O)Nc3ccc(S(=O)(=O)O)cc3)cc2)c1N`, the survivor count (dose: 50.0 mg/kg/injection, schedule: Q01DX005 (ip), vehicle: saline with Tween-80) is given as 6 of 6; the survivor count under setting [5] is on record as 2 of 6; the survivor count under setting [2] is recorded as 0 of 6.

With `CC(CCN1CCOCC1)Nc1ccnc2cc(Cl)ccc12` (stereo not given), the survivor count by setting is: under setting [7], 3 of 5; under setting [8], 0 of 5.
